# No constants are given. Whether binding was seen depends on the method and setting. Some results given as binding are weak or reduced against the parent protein; the word gives no strength.
# T1: soluble EpoR (EposR) (human) (UniProt P19235)
# T1 sequence (looked up): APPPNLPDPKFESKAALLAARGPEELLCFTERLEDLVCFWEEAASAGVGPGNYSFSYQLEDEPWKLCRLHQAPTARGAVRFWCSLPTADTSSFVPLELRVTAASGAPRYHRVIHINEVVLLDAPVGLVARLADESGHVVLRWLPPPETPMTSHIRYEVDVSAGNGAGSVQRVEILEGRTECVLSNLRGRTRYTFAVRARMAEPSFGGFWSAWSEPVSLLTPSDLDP
# T2: Recombinant-expressed EpoR extracellular domain (UniProt P19235)
# T2 sequence (looked up): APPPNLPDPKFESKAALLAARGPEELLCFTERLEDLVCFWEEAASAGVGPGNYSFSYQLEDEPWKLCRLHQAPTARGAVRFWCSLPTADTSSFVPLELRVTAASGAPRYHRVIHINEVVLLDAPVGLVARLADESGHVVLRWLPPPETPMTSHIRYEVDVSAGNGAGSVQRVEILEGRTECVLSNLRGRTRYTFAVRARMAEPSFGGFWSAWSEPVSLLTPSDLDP
# Assays:
# [1] = target: T1, soluble EpoR (EposR) (human); experiment: flow cytometry on yeast displaying the scFv, EposR titrated at 37° C., detected with MAB307 and anti-mouse PE
# [2] = target: T2, Recombinant-expressed EpoR extracellular domain; experiment: Western blot (FIG. 15 legend)
# [3] = target: T2, Recombinant-expressed EpoR extracellular domain; experiment: Western blot after native gel, Ab12.6 at 10 µg/ml
Binder,binding [1],binding [2],binding [3]
"Ab12 scFv construct with Gly/Ser linker (WT) in both the tether and scFv linker positions, displayed on yeast (scFv) scFv: GGGGSGGGGSGGGGSQVQLQESGPGLVKPSETLSLTCTVSGASISSYYWSWIRQPPGKGLEWIGYIYYSGSTNYNPSLKSRVTISVDTSKNQFSLKLRSVTAADTAVYYCARERLGIGDYWGQGTLVTVSSGGGGSGGGGSGGGGSDIQLTQSPSSLSASVGDRVTITCRASQGIRNDLGWYQQKPGKAPKRLIYAASSLQSGVPSRFSGSGSGTEFTLTISSLQPEDFATYYCLQHNTYPPTFGQGTKVEIK",binds,–,–
"Ab12 scFv construct with linker 41 in the tether position and the Gly/Ser linker (WT) in the scFv linker position, displayed on yeast (scFv) scFv: GENKVEYAPALMALSQVQLQESGPGLVKPSETLSLTCTVSGASISSYYWSWIRQPPGKGLEWIGYIYYSGSTNYNPSLKSRVTISVDTSKNQFSLKLRSVTAADTAVYYCARERLGIGDYWGQGTLVTVSSGGGGSGGGGSGGGGSDIQLTQSPSSLSASVGDRVTITCRASQGIRNDLGWYQQKPGKAPKRLIYAASSLQSGVPSRFSGSGSGTEFTLTISSLQPEDFATYYCLQHNTYPPTFGQGTKVEIK",binds,–,–
"Ab12 41/40 scFv (linker 41 as tether, linker 40 as scFv linker), displayed on yeast (scFv) scFv: GENKVEYAPALMALSQVQLQESGPGLVKPSETLSLTCTVSGASISSYYWSWIRQPPGKGLEWIGYIYYSGSTNYNPSLKSRVTISVDTSKNQFSLKLRSVTAADTAVYYCARERLGIGDYWGQGTLVTVSSGPAKELTPLKEAKVSDIQLTQSPSSLSASVGDRVTITCRASQGIRNDLGWYQQKPGKAPKRLIYAASSLQSGVPSRFSGSGSGTEFTLTISSLQPEDFATYYCLQHNTYPPTFGQGTKVEIK",binds,–,–
"Ab12 scFv construct with linker 41 in the tether position and linker 34 in the scFv linker position, displayed on yeast (scFv) scFv: GENKVEYAPALMALSQVQLQESGPGLVKPSETLSLTCTVSGASISSYYWSWIRQPPGKGLEWIGYIYYSGSTNYNPSLKSRVTISVDTSKNQFSLKLRSVTAADTAVYYCARERLGIGDYWGQGTLVTVSSGHEAAAVMQVQYPASDIQLTQSPSSLSASVGDRVTITCRASQGIRNDLGWYQQKPGKAPKRLIYAASSLQSGVPSRFSGSGSGTEFTLTISSLQPEDFATYYCLQHNTYPPTFGQGTKVEIK",binds,–,–
"Ab12.6 (antibody, V domains shown, CDRH2 Y Y S is changed to G G E against Ab12; also called H2-1-3 R2 #6) VH: QVQLQESGPGLVKPSETLSLTCTVSGASISSYYWSWIRQPPGKGLEWIGYIGGEGSTNYNPSLKSRVTISVDTSKNQFSLKLRSVTAADTAVYYCARERLGIGDYWGQGTLVTVSS VL: DIQLTQSPSSLSASVGDRVTITCRASQGIRNDLGWYQQKPGKAPKRLIYAASSLQSGVPSRFSGSGSGTEFTLTISSLQPEDFATYYCLQHNTYPPTFGQGTKVEIK",–,binds,binds

# From patent US20060018902A1 (published 2006)
